Measurements reported in patent US11008339B2, “Substituted pyrazole compounds containing pyrimidine and preparation method and use thereof” (Shenyang Sinochem Agrochemicals R&D Co., Ltd., priority 2015, dated 2021).
Some entries share one result that the patent states for a list of compounds. For at least one compound, name, drawing or mass did not settle the structure.

Experiments:
carmine spider mite = test: Bioactivity test against carmine spider mite (airbrush spray); assay type: in vivo; conditions: mortality after 72 hrs
Experimental: Compounds were dissolved in mixed solvent (acetone:methanol=1:1), and diluted to required concentration with water containing 0.1% of tween 80.
Diamond back moth, armyworm, peach aphid and carmine spider mite were used as targets and the method of spraying by airbrush was used for determination of insecticidal biassays.
The method: Broadbean shoots with two true leaves in pot were taken, the healthy adults of carmine spider mite were inoculated to the leaves. The adults were counted and then sprayed with airbrush at the pressure of 0.7 kg/cm^2 and at dose of 0.5 ml. 3 replicates were set for each treatment. And then they were maintained in standard observation room. Scores were conducted and mortalities were calculated after 72 hrs.

cucumber downy mildew = test: Protective activity in vivo (whole plant spray) against cucumber downy mildew
Experimental: (§1) The method is as followed: The whole plant is used in this test. The compound is dissolved in a proper solvent to get mother solution. The proper solvent is selected from acetone, methanol, DMF and so on according to their dissolving capability to the sample. The volume rate of solvent and testing solution (v/v) is equal to or less than 5%. […] The testing solution is sprayed to the host plant by a special plant sprayer. The plant is inoculated with fungus after 24 hours. According to the infecting characteristic of fungus, the plant is stored in a humidity chamber and then transferred into greenhouse after infection is finished. And the other plants are placed in greenhouse directly.

wheat powdery mildew = test: Protective activity in vivo (whole plant spray) against wheat powdery mildew
Experimental: as §1

cucumber anthracnose = test: Protective activity in vivo (whole plant spray) against cucumber anthracnose
Experimental: as §1

corn rust = test: Protective activity in vivo (whole plant spray) against corn rust
Experimental: as §1

Cc1ncnc(NCCOc2ccn(-c3c(Cl)cccc3Cl)n2)c1Cl [Compound 31-23]
more than 80%: control against carmine spider mite (carmine spider mite; 600 ppm) | control against cucumber downy mildew (cucumber downy mildew; 6.25 ppm) | control against cucumber downy mildew (cucumber downy mildew; 12.5 ppm) | control against cucumber downy mildew (cucumber downy mildew; 25 ppm) | control against cucumber downy mildew (cucumber downy mildew; 100 ppm)

Cc1ncnc(NCCOc2ccn(-c3c(Cl)cc(Cl)cc3Cl)n2)c1Cl [Compound 31-30]
more than 80%: control against wheat powdery mildew (wheat powdery mildew; 25 ppm) | control against wheat powdery mildew (wheat powdery mildew; 100 ppm) | control against wheat powdery mildew (wheat powdery mildew; 400 ppm) | control against cucumber downy mildew (cucumber downy mildew; 25 ppm) | control against cucumber downy mildew (cucumber downy mildew; 100 ppm)

CCc1ncnc(NCCOc2ccn(-c3c(Cl)cccc3Cl)n2)c1Cl [Compound 32-23]
more than 80%: control against carmine spider mite (carmine spider mite; 600 ppm)

c1ccc(-n2ccc(OCCNc3ncnc4ccccc34)n2)cc1 [Compound 40-1]
more than 80%: control against cucumber downy mildew (cucumber downy mildew; 100 ppm)

Fc1ccc(-n2ccc(OCCNc3ncnc4ccccc34)n2)cc1 [Compound 40-4]
more than 80%: control against carmine spider mite (carmine spider mite; 600 ppm) | control against cucumber downy mildew (cucumber downy mildew; 6.25 ppm) | control against cucumber downy mildew (cucumber downy mildew; 12.5 ppm) | control against cucumber downy mildew (cucumber downy mildew; 25 ppm) | control against cucumber downy mildew (cucumber downy mildew; 100 ppm) | control against cucumber downy mildew (cucumber downy mildew; 400 ppm) | control against cucumber anthracnose (cucumber anthracnose; 100 ppm) | control against cucumber anthracnose (cucumber anthracnose; 400 ppm)

Clc1cccc(-n2ccc(OCCNc3ncnc4ccccc34)n2)c1 [Compound 40-18]
more than 80%: control against cucumber downy mildew (cucumber downy mildew; 6.25 ppm) | control against cucumber downy mildew (cucumber downy mildew; 12.5 ppm) | control against cucumber downy mildew (cucumber downy mildew; 25 ppm) | control against cucumber downy mildew (cucumber downy mildew; 100 ppm) | control against cucumber downy mildew (cucumber downy mildew; 400 ppm) | control against corn rust (corn rust; 400 ppm)

Clc1ccc(-n2ccc(OCCNc3ncnc4ccccc34)n2)c(Cl)c1 [Compound 40-21]
more than 80%: control against wheat powdery mildew (wheat powdery mildew; 400 ppm) | control against cucumber downy mildew (cucumber downy mildew; 25 ppm) | control against cucumber downy mildew (cucumber downy mildew; 100 ppm) | control against cucumber downy mildew (cucumber downy mildew; 400 ppm) | control against corn rust (corn rust; 400 ppm)

Clc1cc(Cl)c(-n2ccc(OCCNc3ncnc4ccccc34)n2)c(Cl)c1 [Compound 40-30]
more than 80%: control against cucumber downy mildew (cucumber downy mildew; 25 ppm) | control against cucumber downy mildew (cucumber downy mildew; 100 ppm)

Cc1ccc(-n2ccc(OCCNc3ncnc4ccccc34)n2)cc1 [Compound 40-57]
more than 80%: control against cucumber downy mildew (cucumber downy mildew; 400 ppm) | control against cucumber anthracnose (cucumber anthracnose; 25 ppm) | control against cucumber anthracnose (cucumber anthracnose; 100 ppm) | control against cucumber anthracnose (cucumber anthracnose; 400 ppm)

FC(F)(F)c1ccc(-n2ccc(OCCNc3ncnc4ccccc34)n2)cc1 [Compound 40-69]
more than 80%: control against wheat powdery mildew (wheat powdery mildew; 400 ppm)

Fc1ccc(-n2ccc(OCCNc3ncnc4scc(Cl)c34)n2)cc1 [Compound 42-4]
more than 80%: control against wheat powdery mildew (wheat powdery mildew; 400 ppm) | control against corn rust (corn rust; 400 ppm)

Clc1ccccc1-n1ccc(OCCNc2ncnc3scc(Cl)c23)n1 [Compound 42-17]
more than 80%: control against carmine spider mite (carmine spider mite; 600 ppm) | control against wheat powdery mildew (wheat powdery mildew; 100 ppm) | control against wheat powdery mildew (wheat powdery mildew; 400 ppm) | control against cucumber downy mildew (cucumber downy mildew; 25 ppm) | control against cucumber downy mildew (cucumber downy mildew; 100 ppm)

Clc1cccc(-n2ccc(OCCNc3ncnc4scc(Cl)c34)n2)c1 [Compound 42-18]
more than 80%: control against wheat powdery mildew (wheat powdery mildew; 400 ppm) | control against cucumber downy mildew (cucumber downy mildew; 25 ppm) | control against cucumber downy mildew (cucumber downy mildew; 100 ppm) | control against cucumber downy mildew (cucumber downy mildew; 400 ppm) | control against corn rust (corn rust; 100 ppm) | control against corn rust (corn rust; 400 ppm)

Clc1ccc(-n2ccc(OCCNc3ncnc4scc(Cl)c34)n2)c(Cl)c1 [Compound 42-21]
more than 80%: control against wheat powdery mildew (wheat powdery mildew; 400 ppm) | control against cucumber downy mildew (cucumber downy mildew; 6.25 ppm) | control against cucumber downy mildew (cucumber downy mildew; 12.5 ppm) | control against cucumber downy mildew (cucumber downy mildew; 25 ppm) | control against cucumber downy mildew (cucumber downy mildew; 100 ppm) | control against cucumber downy mildew (cucumber downy mildew; 400 ppm) | control against corn rust (corn rust; 400 ppm)

N#Cc1ccc(-n2ccc(OCCNc3ncnc4scc(Cl)c34)n2)cc1 [Compound 42-49]
more than 80%: control against wheat powdery mildew (wheat powdery mildew; 400 ppm) | control against cucumber downy mildew (cucumber downy mildew; 400 ppm) | control against cucumber anthracnose (cucumber anthracnose; 25 ppm) | control against cucumber anthracnose (cucumber anthracnose; 100 ppm) | control against cucumber anthracnose (cucumber anthracnose; 400 ppm)

FC(F)(F)c1ccc(-n2ccc(OCCNc3ncnc4scc(Cl)c34)n2)cc1 [Compound 42-69]
more than 80%: control against wheat powdery mildew (wheat powdery mildew; 6.25 ppm) | control against wheat powdery mildew (wheat powdery mildew; 25 ppm) | control against wheat powdery mildew (wheat powdery mildew; 100 ppm) | control against wheat powdery mildew (wheat powdery mildew; 400 ppm) | control against cucumber downy mildew (cucumber downy mildew; 25 ppm) | control against cucumber downy mildew (cucumber downy mildew; 100 ppm) | control against cucumber downy mildew (cucumber downy mildew; 400 ppm) | control against cucumber anthracnose (cucumber anthracnose; 25 ppm) | control against cucumber anthracnose (cucumber anthracnose; 400 ppm) | control against corn rust (corn rust; 6.25 ppm) | control against corn rust (corn rust; 25 ppm) | control against corn rust (corn rust; 100 ppm) | control against corn rust (corn rust; 400 ppm)

FC(F)(F)Oc1ccc(-n2ccc(OCCNc3ncnc4scc(Cl)c34)n2)cc1 [Compound 42-78]
more than 80%: control against carmine spider mite (carmine spider mite; 600 ppm) | control against wheat powdery mildew (wheat powdery mildew; 400 ppm) | control against cucumber downy mildew (cucumber downy mildew; 400 ppm) | control against corn rust (corn rust; 400 ppm)

CC(COc1ccn(-c2ccc(Cl)cc2)n1)Nc1ncnc2scc(Cl)c12 (stereo not drawn) [Compound 44-19]
more than 80%: control against carmine spider mite (carmine spider mite; 100 ppm) | control against carmine spider mite (carmine spider mite; 600 ppm) | control against wheat powdery mildew (wheat powdery mildew; 6.25 ppm) | control against wheat powdery mildew (wheat powdery mildew; 25 ppm) | control against wheat powdery mildew (wheat powdery mildew; 100 ppm) | control against wheat powdery mildew (wheat powdery mildew; 400 ppm) | control against cucumber downy mildew (cucumber downy mildew; 25 ppm) | control against cucumber downy mildew (cucumber downy mildew; 100 ppm) | control against cucumber downy mildew (cucumber downy mildew; 400 ppm) | control against corn rust (corn rust; 100 ppm) | control against corn rust (corn rust; 400 ppm)

Cc1ncnc(NCCOc2cnn(-c3ccc(Cl)cc3)c2)c1Cl [Compound 57-19]
more than 80%: control against wheat powdery mildew (wheat powdery mildew; 400 ppm) | control against cucumber downy mildew (cucumber downy mildew; 400 ppm)

CCc1ncnc(NCCOc2cnn(-c3ccc(Cl)cc3)c2)c1Cl [Compound 58-19]
more than 80%: control against wheat powdery mildew (wheat powdery mildew; 400 ppm) | control against cucumber downy mildew (cucumber downy mildew; 400 ppm)

FC(F)c1ncnc(NCCOc2cnn(-c3ccc(Cl)cc3)c2)c1Cl [Compound 59-19]
more than 80%: control against wheat powdery mildew (wheat powdery mildew; 400 ppm) | control against cucumber downy mildew (cucumber downy mildew; 400 ppm)

Clc1ccc(-n2cc(OCCNc3ncnc4ccccc34)cn2)cc1 [Compound 66-19]
more than 80%: control against wheat powdery mildew (wheat powdery mildew; 400 ppm) | control against cucumber downy mildew (cucumber downy mildew; 400 ppm)

Clc1ccc(-n2cc(OCCNc3ncnc4scc(Cl)c34)cn2)cc1 [Compound 68-19]
more than 80%: control against wheat powdery mildew (wheat powdery mildew; 400 ppm) | control against cucumber downy mildew (cucumber downy mildew; 400 ppm)

Cc1c(Cl)ncnc1NCCCOc1ccn(-c2ccc(C(F)(F)F)cc2)n1 [Compound 122-69]
more than 80%: control against wheat powdery mildew (wheat powdery mildew; 25 ppm) | control against wheat powdery mildew (wheat powdery mildew; 100 ppm) | control against wheat powdery mildew (wheat powdery mildew; 400 ppm) | control against cucumber anthracnose (cucumber anthracnose; 25 ppm) | control against cucumber anthracnose (cucumber anthracnose; 100 ppm)

COc1c(Cl)ncnc1NCCCOc1ccn(-c2ccc(C(F)(F)F)cc2)n1 [Compound 123-69]
more than 80%: control against wheat powdery mildew (wheat powdery mildew; 6.25 ppm) | control against wheat powdery mildew (wheat powdery mildew; 25 ppm) | control against wheat powdery mildew (wheat powdery mildew; 100 ppm) | control against wheat powdery mildew (wheat powdery mildew; 400 ppm) | control against cucumber downy mildew (cucumber downy mildew; 100 ppm) | control against cucumber anthracnose (cucumber anthracnose; 25 ppm) | control against cucumber anthracnose (cucumber anthracnose; 100 ppm)

CCc1ncnc(NCCCOc2ccn(-c3ccc(C(F)(F)F)cc3)n2)c1Cl [Compound 125-69]
more than 80%: control against wheat powdery mildew (wheat powdery mildew; 25 ppm) | control against wheat powdery mildew (wheat powdery mildew; 100 ppm) | control against wheat powdery mildew (wheat powdery mildew; 400 ppm) | control against cucumber downy mildew (cucumber downy mildew; 100 ppm)

FC(F)c1ncnc(NCCCOc2ccn(-c3ccc(C(F)(F)F)cc3)n2)c1Cl [Compound 126-69]
more than 80%: control against wheat powdery mildew (wheat powdery mildew; 6.25 ppm) | control against wheat powdery mildew (wheat powdery mildew; 25 ppm) | control against wheat powdery mildew (wheat powdery mildew; 100 ppm) | control against wheat powdery mildew (wheat powdery mildew; 400 ppm) | control against cucumber downy mildew (cucumber downy mildew; 100 ppm) | control against cucumber anthracnose (cucumber anthracnose; 25 ppm) | control against cucumber anthracnose (cucumber anthracnose; 100 ppm)

FC(F)(F)c1ccc(-n2ccc(OCCCNc3ncnc4ccccc34)n2)cc1 [Compound 127-69]
more than 80%: control against wheat powdery mildew (wheat powdery mildew; 25 ppm) | control against wheat powdery mildew (wheat powdery mildew; 100 ppm) | control against wheat powdery mildew (wheat powdery mildew; 400 ppm) | control against cucumber downy mildew (cucumber downy mildew; 100 ppm) | control against cucumber anthracnose (cucumber anthracnose; 25 ppm) | control against cucumber anthracnose (cucumber anthracnose; 100 ppm)

FC(F)(F)c1ccc(-n2ccc(OCCCNc3ncnc4scc(Cl)c34)n2)cc1 [Compound 128-69]
more than 80%: control against wheat powdery mildew (wheat powdery mildew; 6.25 ppm) | control against wheat powdery mildew (wheat powdery mildew; 25 ppm) | control against wheat powdery mildew (wheat powdery mildew; 100 ppm) | control against wheat powdery mildew (wheat powdery mildew; 400 ppm) | control against cucumber downy mildew (cucumber downy mildew; 100 ppm)
